This passage reports percent viability results from the supplement of paper PMC8256030.

The structures appear in SMILES notation. This is one part of the list. Single values are uncertain here, since repeats match poorly.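 HEK293T cells were given each compound shortly before transfection with a reporter in which red mCherry is followed by the SARS-CoV-2 frameshift element and then GFP in the −1 frame, so GFP appears only after frameshifting.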

This assay has as its system HEK293T. The experiment in a line: percent viability (nuclei count) relative to control; higher = more viable cells. As to conditions: 10 µM; 24 h.
`CNC(=C[N+](=O)[O-])NCCSCc1ccc(CN(C)C)o1`: the percent viability is 121%.

For the compound `CCCC1O[C@@H]2C[C@H]3[C@@H]4CCC5=CC(=O)C=C[C@]5(C)[C@H]4[C@@H](O)C[C@]3(C)[C@]2(C(=O)CO)O1` (stereo not given in full) [Uceris], the percent viability was found to be 227%.

On to `CCCCC1C(=O)NN(c2ccccc2)C1=O` (stereo not given) [mofebutazone], for which the percent viability was 335%.

Take `C[C@H]1COc2c(C3(N)CC3)c(F)cc3c(=O)c(C(=O)O)cn1c23` [Pazufloxacin]: the percent viability is 226%.

On to `COc1cc2c(cc1OC)CN(C(=O)[C@H](C)N[C@@H](CCc1ccccc1)C(=O)O)[C@H](C(=O)O)C2` [moexiprilat], for which the percent viability was 221%.

On to `CC1(C)S[C@@H]2[C@H](NC(=O)C(C(=O)O)c3ccccc3)C(=O)N2[C@H]1C(=O)O` (stereo not given in full) [carbenicillin], for which the percent viability came to 226%.

Turning to `CC(C)(C)NCC(O)COc1ccc(NC(=O)NC2CCCCC2)cc1` (stereo not given) [talinolol], the percent viability amounted to 95.9%.

Turning to `CC(C)NCC(O)COc1ccccc1C1CC1` (stereo not given) [procinolol], the percent viability turned out to be 330%.

For the compound `CSCCC(N)C(=O)O` (stereo not given), the percent viability was 251%.

On to `CC=CC(=O)N(CC)c1ccccc1C` [Crotamiton], for which the percent viability is 146%.

As for `CC(=O)NC(Cc1ccccc1)C(=O)O` (stereo not given), the percent viability came out at 328%.

In the case of `COc1cc(C(=O)NS(=O)(=O)c2ccccc2C)ccc1Cc1cn(C)c2ccc(NC(=O)OC3CCCC3)cc12` [zafirlukast], the percent viability came out at 241%.

As for `O=NN(CCCl)C(=O)NCCCl` [carmustine], the percent viability stood at 309%.

For the compound `CNC(=O)c1ccc(Cl)c(S(=O)(=O)NC)c1` [tiamizide], the percent viability was determined as 155%.

On to `CN1[C@@H]2CC[C@H]1C[C@@H](OC(c1ccccc1)c1ccccc1)C2` [benzatropine], for which the percent viability worked out at 177%.
